The values that follow are results of earlier work, collected in US5683715A, “Taxane-containing phosphatidylcholine liposomes” (The Liposome Company, Inc., priority 1995, dated 1997).

Regarding `CC(=O)O[C@H]1C(=O)[C@@]2(C)[C@H]([C@H](OC(=O)c3ccccc3)[C@]3(O)C[C@H](OC(=O)[C@H](O)[C@@H](NC(=O)c4ccccc4)c4ccccc4)C(C)=C1C3(C)C)[C@]1(OC(C)=O)CO[C@@H]1C[C@@H]2O` [Paclitaxel], the “Solubility in water and aqueous solvents” value is “highly insoluble”.
